From the supplement of paper PMC7125110
± gives the standard error. Many of these values have a large error.

B1: glmS ribozyme (parent)
chain: AUAAAAGCGCCAGAACUACAGAAAUGUAGUUGACGAGGAGGAGGUUUAUCGAAUUUUCGGCGGAUGCCUCCAAA

Variants of: B1
Experiment: self-cleavage kobs at 2500 uM GlcN6P; higher = faster cleavage; RNA array
Conditions: with glucosamine-6-phosphate
In short: (§1)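 Glucosamine-6-phosphate, from 40 μM to 10 mM in HEPES/KCl/Mg(OAc)2 buffer, was flowed over sequenced MiSeq chips carrying barcoded ribozyme variants transcribed in situ by E. coli RNA polymerase. A hybridised Cy3 probe tracked the variants at 37 °C as tiles were imaged over ~14 h. kobs, kcat and KM were obtained by fitting normalised per-tile medians to exponential decays and then applying weighted Michaelis–Menten fits across concentrations.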

Row | Variant | self-cleavage kobs at 2500 uM GlcN6P
1 | U46C U57A | 2.74e-05 ± 1.5e-05 s⁻¹
2 | A52U C67A C70A | 3.93e-05 ± 2.6e-05 s⁻¹
3 | A39C U55G C58A | 2.79e-05 ± 2.3e-05 s⁻¹
4 | G60A C70G | 2.86e-05 ± 1.8e-05 s⁻¹
5 | C61A C67G | 2.04e-05 ± 1.5e-05 s⁻¹
6 | U31C A39C U47C U56C | 2.85e-05 ± 1.6e-05 s⁻¹
7 | C16U G32U U69A | 4.12e-05 ± 3.1e-05 s⁻¹
8 | G43A U45G A48G G66A | 4.66e-05 ± 3.2e-05 s⁻¹
9 | A14U G62A C70G | 6.04e-05 ± 3.1e-05 s⁻¹
10 | U31G A39U A64C C70U | 3.55e-05 ± 2.2e-05 s⁻¹
11 | A23C A52G U69A | 6.5e-05 ± 3.8e-05 s⁻¹
12 | A36U | < 1e-05 s⁻¹
13 | U31A G59A A64G | 2.32e-05 ± 1.7e-05 s⁻¹
14 | G41U U65C | 2.03e-05 ± 1e-05 s⁻¹
15 | G29U U31C C50G C61U | 5.3e-05 ± 3.1e-05 s⁻¹
16 | U31A A33U U55G | 3.44e-05 ± 2.4e-05 s⁻¹
17 | U54G G60C C68G | 4.5e-05 ± 2.4e-05 s⁻¹
18 | A15G A42U C70G | 3.43e-05 ± 1.7e-05 s⁻¹
19 | U30C G37A | 2.09e-05 ± 1.8e-05 s⁻¹
20 | C50G A52U C70U | 2.66e-05 ± 2e-05 s⁻¹
21 | G59U C61A C67G | 2.3e-05 ± 2.3e-05 s⁻¹
22 | C16A C67G C68G C70U | 3.55e-05 ± 2.2e-05 s⁻¹

Row | Variant | self-cleavage kobs at 2500 uM GlcN6P
23 | G32C U54A | 1.97e-05 ± 1.5e-05 s⁻¹
24 | U46G C67A C70G | 4.52e-05 ± 2.9e-05 s⁻¹
25 | A36G A53G | 1.57e-05 ± 1.4e-05 s⁻¹
26 | U31C C68G | 1.68e-05 ± 1.6e-05 s⁻¹
27 | G29C G37C C68G | 5.02e-05 ± 2.7e-05 s⁻¹
28 | G32A U57G U69G | 6.38e-05 ± 4.4e-05 s⁻¹
29 | C50G G63A A64U | 4.44e-05 ± 2.5e-05 s⁻¹
30 | U47C G66U C67G | 1.99e-05 ± 1.6e-05 s⁻¹
31 | U45A A52U U65G | 2.97e-05 ± 2.5e-05 s⁻¹
32 | C16G G44A | 3.51e-05 ± 2.6e-05 s⁻¹
33 | G37C U54G U55G | 3.17e-05 ± 3.1e-05 s⁻¹
34 | C16A G32A C70G | 3.81e-05 ± 2.2e-05 s⁻¹
35 | C16A U47G C58A | 3.29e-05 ± 1.7e-05 s⁻¹
36 | G32U A53U G63A C68G | 0.00174 ± 0.0015 s⁻¹
37 | U46A G66U C67G | 4.18e-05 ± 2.9e-05 s⁻¹
38 | G38U C70U | 1.58e-05 ± 1.5e-05 s⁻¹
39 | C16G G41C | 2.94e-05 ± 1.5e-05 s⁻¹
40 | C16G U56C C58U | 4.25e-05 ± 2.3e-05 s⁻¹
41 | A36U C70G | 0.000271 ± 0.0002 s⁻¹
42 | A33C U56G A64G G66A | 3.21e-05 ± 2.3e-05 s⁻¹
43 | A15G G37U C58A C70A | 4.64e-05 ± 2.6e-05 s⁻¹
44 | C16U A52C | 2.06e-05 ± 1.9e-05 s⁻¹

Part of the list above, comma-delimited:
Row,Variant,self-cleavage kobs at 2500 uM GlcN6P
17,U54G G60C C68G,4.5e-05 ± 2.4e-05 s⁻¹
18,A15G A42U C70G,3.43e-05 ± 1.7e-05 s⁻¹
19,U30C G37A,2.09e-05 ± 1.8e-05 s⁻¹
20,C50G A52U C70U,2.66e-05 ± 2e-05 s⁻¹
22,C16A C67G C68G C70U,3.55e-05 ± 2.2e-05 s⁻¹
23,G32C U54A,1.97e-05 ± 1.5e-05 s⁻¹
24,U46G C67A C70G,4.52e-05 ± 2.9e-05 s⁻¹
25,A36G A53G,1.57e-05 ± 1.4e-05 s⁻¹
26,U31C C68G,1.68e-05 ± 1.6e-05 s⁻¹
28,G32A U57G U69G,6.38e-05 ± 4.4e-05 s⁻¹
29,C50G G63A A64U,4.44e-05 ± 2.5e-05 s⁻¹
30,U47C G66U C67G,1.99e-05 ± 1.6e-05 s⁻¹
31,U45A A52U U65G,2.97e-05 ± 2.5e-05 s⁻¹
32,C16G G44A,3.51e-05 ± 2.6e-05 s⁻¹
33,G37C U54G U55G,3.17e-05 ± 3.1e-05 s⁻¹
34,C16A G32A C70G,3.81e-05 ± 2.2e-05 s⁻¹
35,C16A U47G C58A,3.29e-05 ± 1.7e-05 s⁻¹
36,G32U A53U G63A C68G,0.00174 ± 0.0015 s⁻¹
37,U46A G66U C67G,4.18e-05 ± 2.9e-05 s⁻¹
38,G38U C70U,1.58e-05 ± 1.5e-05 s⁻¹
39,C16G G41C,2.94e-05 ± 1.5e-05 s⁻¹
40,C16G U56C C58U,4.25e-05 ± 2.3e-05 s⁻¹
42,A33C U56G A64G G66A,3.21e-05 ± 2.3e-05 s⁻¹
43,A15G G37U C58A C70A,4.64e-05 ± 2.6e-05 s⁻¹
44,C16U A52C,2.06e-05 ± 1.9e-05 s⁻¹

(further entries)

Row | Variant | self-cleavage kobs at 2500 uM GlcN6P
45 | A52C C67G | 2.67e-05 ± 1.5e-05 s⁻¹
46 | G37U C71G | 1.99e-05 ± 1.4e-05 s⁻¹
47 | A15C A42U | 2.05e-05 ± 1.1e-05 s⁻¹
48 | C50A G60A C67A | 2.77e-05 ± 2.2e-05 s⁻¹
49 | G32U U57C | 2.15e-05 ± 1.2e-05 s⁻¹
50 | A52G A53C U54A | 3.08e-05 ± 2.2e-05 s⁻¹
51 | A53G U57A C70A | 3.49e-05 ± 2.2e-05 s⁻¹
52 | G60A C71U | 2.07e-05 ± 1.1e-05 s⁻¹
53 | A52U C68A | 2.8e-05 ± 1.6e-05 s⁻¹
54 | C50U G63U C67U C68U C70G | 3.69e-05 ± 2.8e-05 s⁻¹
55 | A15U A42U U54A | 3.02e-05 ± 2.3e-05 s⁻¹
56 | A36U U65C C70G | 3.21e-05 ± 2.7e-05 s⁻¹
57 | A20U | 0.0125 ± 0.011 s⁻¹
58 | G51A A52G G66A C70G | 4.24e-05 ± 2.6e-05 s⁻¹
59 | U45C C67U C68A | 3.85e-05 ± 2.5e-05 s⁻¹
60 | C16A G41A | 3.02e-05 ± 1.7e-05 s⁻¹
61 | U49G G63C C70A | 3.01e-05 ± 2.2e-05 s⁻¹
62 | C58A U69G | 3.81e-05 ± 3e-05 s⁻¹
63 | U30C C58U C68U | 3.72e-05 ± 2.1e-05 s⁻¹
64 | G29A G60U G66A | 0.00143 ± 0.0014 s⁻¹
65 | A36C U49G C61U | 0.000179 ± 9.7e-05 s⁻¹
66 | A42U U65G C68A | 3.9e-05 ± 2.4e-05 s⁻¹

Variants of: B1
Experiment: self-cleavage kobs at 10000 uM GlcN6P; higher = faster cleavage; RNA array
Conditions: with glucosamine-6-phosphate
In short: as §1

Row | Variant | self-cleavage kobs at 10000 uM GlcN6P
67 | C11A C50G U56G G59U G60A | 3.52e-05 ± 2.3e-05 s⁻¹
68 | U31A A33U U55G | 2.46e-05 ± 1.4e-05 s⁻¹
69 | G7A C58A C67G | 2.61e-05 ± 2.2e-05 s⁻¹
70 | G7A A15G | 1.74e-05 ± 1e-05 s⁻¹
71 | C10U U56A | 2.21e-05 ± 1.2e-05 s⁻¹
72 | C50G A52U C70U | 3.03e-05 ± 1.9e-05 s⁻¹
73 | C11A C50G G59U C61G G62C | 4.26e-05 ± 2.3e-05 s⁻¹
74 | C16G G44A | 2.55e-05 ± 1.6e-05 s⁻¹
75 | C16G G41C | 2.07e-05 ± 1.7e-05 s⁻¹
76 | C16G U56C C58U | 1.92e-05 ± 1.4e-05 s⁻¹
77 | A36U C70G | 0.000344 ± 0.00024 s⁻¹
78 | G9C C16U G32A C50G | 3.19e-05 ± 2.4e-05 s⁻¹
79 | A6C U45G C70U | 3.37e-05 ± 2e-05 s⁻¹
80 | A15C A42U | 1.14e-05 ± 1.1e-05 s⁻¹
81 | C10A A39G C70G | 3.13e-05 ± 2.1e-05 s⁻¹
82 | C50A G60A C67A | 1.72e-05 ± 1.7e-05 s⁻¹
83 | A52G A53C U54A | 2e-05 ± 1.8e-05 s⁻¹
84 | G60A C71U | 1.86e-05 ± 1.2e-05 s⁻¹
85 | A20U | 0.123 ± 0.11 s⁻¹
86 | G7U G59U C68A | 3.4e-05 ± 2.4e-05 s⁻¹
87 | U45C C67U C68A | 3.62e-05 ± 1.9e-05 s⁻¹
88 | A6G C50G A53G C58U | 3.44e-05 ± 2.1e-05 s⁻¹
89 | A6G C8A C68G | 2.44e-05 ± 1.9e-05 s⁻¹
